Source: PMC10163288
Some of the results follow.

B1: il2ra_site1_3nfp_sap_8_mot_HHH_b1_06045_af2_000000189_0001_3_17_H_._HHH_b1_03192_0001_0000400017_0000001_0_0001_af2pred_0001_af2pred (protein)
chain: SSSSSDREEVEELLERAEESDDPRERAKLLEEALRIARETRDHETAREIFEVALRLVRGSSSSSS
B2: il2ra_site2_2erj_normal_mot_HHH_b1_06160_000000008_0001_39_56_H_._HHH_b1_00461_af2_0001_0000300014_0000001_0 (protein)
chain: SSSSDEEELRRLIEEARELIEEGNPEEAWRVLSRASELAFELGNFELYSEIAELTHELAKLSSSS
B3: il2ra_site2_3nfp_normal_mot_HHH_b2_03895_000000036_0001_1_18_H_._HHH_b2_03657_0001_0000100001_0000001_0 (protein)
chain: SSSSSDHEAYEKVLKLLKEALQIEDEERVRELLEEAQELAEEARSLVLRRSIEDLREALSSSSSS
B4: il2ra_site1_3nfp_normal_mot_119b7766384adbe86006a62bce89dba1_0001_af2_000000092_0001_18_32_H_._936cac0bedbaeeb6fc45f7bbb6d160e8_0001_0001_0000200021_0000001_0 (protein)
chain: DKAVKLAIRLAQLQDEELAELLEEVVRLLKEEGDPRLLELLDEAMQLIARGNPEEAKRVLEEALK
B5: il2ra_site2_2erj_normal_mot_HHH_b2_07568_000000046_0001_18_34_H_._HHH_b2_01431_af2_0001_0000100005_0000001_0 (protein)
chain: SSSSEEAEKLLEEAKELLKKGNPEEADKVLRRASELAFRLGDFELFSELSELFEEADKLQRSSSS
B6: il2ra_site1_3nfp_sap_16_mot_HHH_b2_00286_000000273_0001_43_57_H_._HHH_b1_07840_0001_0000300031_0000001_0_0001 (protein)
chain: SIEMYVEKAEELDPRLEELLKRALELIQELGDPELARLLIKVVALLELGDPETEKEAEELLREIE
B7: il2ra_site2_2erj_sap_24_mot_HHH_eva_0077_000000062_0001_1_20_H_._HHH_b1_02351_0001_0000400024_0000001_0_0001 (protein)
chain: SSSSDERLRAASLLIEAAALAFRLGDEETAKRLRELFARYARENDPRYAEEAEELEEELNSSSSS
B8: il2ra_site1_3nfp_normal_mot_HHH_b1_01231_af2_000000170_0001_1_16_H_._HHH_b1_05546_af2_0001_0000100003_0000001_0_af2pred_0001_af2pred_1_swapped (protein)
chain: SSSSDEEEAEELFERVREELERLLKEDPQKASRLAREAVRLLLELGNRELAQRLLRFAAKLSSSS
B9: il2ra_site2_3nfp_sap_20_mot_HHH_b1_01080_000000101_0001_40_56_H_._HHH_b1_05979_0001_0001800050_0000001_0_0001 (protein)
chain: SLEELVEEVEEKVPDPLLVAALRYALAAVLLRNDPELRRLLEEAVRLLEEGDPERAAELLAKILH
B10: il2ra_site1_2b5i_normal_mot_f5ff40796168375b462bec8614a1db4a_0001_1_000000138_0001_53_65_H_._HHH_b2_01111_0001_0000200008_0000001_0_af2pred_dldesign_0_af2pred (protein)
chain: SSSSSSDAKEDVEELIELAKKEEDPNLRNRILKMAKQTAERAKNPELVAKVEKVKEELSSSSSSS
B11: il2ra_site2_2erj_normal_mot_6bd1339e93f6fdda22195c76da45ec5d_0001_000000136_0001_37_51_H_._HHH_b2_06260_0001_0000300008_0000001_0_af2pred_0001_1_af2pred_swapped (protein)
chain: SSSSSEDEEEVEELLEQAKEAAKRDPHKAAILLAEAMEIALESQNEELEEAVSKVSQEIWRSSSS
B12: il2ra_site2_2erj_sap_26_mot_720936397f2d31669eff21710c18a4fc_0001_000000071_0001_37_51_H_._HHH_b2_01095_0001_0000200007_0000001_0_0001 (protein)
chain: SSSDLEEEVKRLLEEAEELLKEGNPEEAWRVLREAATIVFRLGNEELFNEVLEALHEIAKRNSSS
B13: il2ra_site1_1z92_sap_14_mot_22370d59370c406a0c205a431f537cfa_0001_000000027_0001_1_14_H_._HHH_b2_04392_0001_0000500006_0000001_0_0001_af2pred_0001_af2pred_1_swa … (protein)
chain: SSSSDEEDRKVIRIVAELYRKFKLSEEQLKELHKLALELLQNGVSEEEIEELLEEQAKRLSSSSS
B14: il2ra_site2_3nfp_sap_23_mot_6ba2120c21ebf0bdaaca7550098e1d96_0001_af2_000000030_0001_16_30_H_._HHH_b1_06076_0001_0000200004_0000001_0_0001 (protein)
chain: SSSSDKEEEIERLLEEVERLLEEGDPTEAVQVLMRASKLAAELGDEELARKVLELFKELQSSSSS
B15: il2ra_site1_1z92_sap_5_mot_HHH_b1_00499_000000182_0001_1_17_H_._HHH_b1_05364_0001_0000100004_0000001_0_0001_af2pred_0001_af2pred (protein)
chain: DVEEELRELAEELGLPPEELEKLLEELQELFDAPPELALEALLRVLKLAGSAETVRRFVERMRRT
B16: il2ra_site1_1z92_sap_23_mot_HHH_b1_07866_af2_000000238_0001_1_18_H_._HHH_b1_03132_0001_0000100002_0000001_0_0001_af2pred_0001_af2pred_1 (protein)
chain: SSSSDREEEIVRRIVEELGLSEELEEHLEKDAEQALRAGVSEKSVELVLRDLAELLERRESSSSS
B17: il2ra_site2_3nfp_normal_mot_HHH_b1_00660_af2_000000090_0001_40_57_H_._HHH_b1_06567_0001_0000600014_0000001_0_af2pred_0001_1_af2pred_swapped (protein)
chain: SSSSDELEERIRELLERVEELIKEGNPEEAERLLREAAKLVLELGDQELFALIYELKELLESSSS
B18: il2ra_site1_3nfp_normal_mot_HHH_b2_00286_000000273_0001_43_57_H_._97e99672e168623ff83a69b38e8865de_0001_1_0001_0000200016_0000001_0_af2pred_0001_af2pred_1 (protein)
chain: SDEELLKRMVEYAVRNNSPRTLRKILRALRARLGDPEEAERVLEELIEEVLGDPEEAQRLVEEAK

What follows are binders tested against il2ra, P01589 (assay: yeast display titration).

Apparent Kd, inactive:
B1 no binding seen
B2 no binding seen
B3 no binding seen
B4 no binding seen
B5 no binding seen
B6 no binding seen
B7 no binding seen
B8 no binding seen
B9 no binding seen
B10 no binding seen
B11 no binding seen
B12 no binding seen
B13 no binding seen
B14 no binding seen
B15 no binding seen
B16 no binding seen
B17 no binding seen
B18 no binding seen

Not a retest: entries from further up.
Apparent Kd, inactive:
B1 no binding seen
B2 no binding seen
